In the supplement of paper PMC12889115:
This is one part of the list. These are raw signals, not scaled to a control.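 In the initial screen, polymyxin B was used at a concentration that permeabilizes Salmonella's outer membrane but not its inner membrane. Maximum growth was set by DMSO wells with or without polymyxin B. Since plates varied, data were ranked per plate, and compounds giving the lowest OD600 advanced as hits.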

Test system: Salmonella enterica serovar Typhimurium SL1344
Experiment: bacterial growth OD600 after 18 h with compound and polymyxin B; higher = more bacterial growth (less inhibition)
Conditions: 50 µM, Mueller-Hinton broth

Compound	bacterial growth OD600 (polymyxin B 0.75 µg/mL)	bacterial growth OD600 (polymyxin B 1 µg/mL)
COC(=O)[C@@H](NC(=O)c1cc(COc2ccc(C)c(C)c2)on1)C(C)C	0.578	
O=C(Cn1cccn1)N1CCCC(CCc2c(F)cccc2F)C1 (stereo not given)	0.776	
Cn1nccc1C(=O)NC1CCCc2nc(-c3ccccc3)ncc21 (stereo not given)		0.928
Cc1oc(-c2ccc(NC(=O)Cc3ccccc3)cc2)nc1CNC(=O)c1cc(-c2ccccc2)no1	0.904	
CCOc1cccc(CN2CCC(Oc3cc(OC)ccc3C(=O)NCCOC)CC2)c1		1.02
COCC(=O)Nc1cc(C(=O)NCCCc2cccnc2)cc2ncn(CCc3ccccc3)c12	0.986	
COc1ccc(-c2n[nH]cc2CNCCCOc2cccnc2)cc1F		0.838
COc1ccc(CN(C)C(=O)c2cn(Cc3c(F)cccc3F)nn2)cc1OC		0.929
c1cc(CNCc2ccc3[nH]c4c(c3c2)CCCCCC4)ccn1	0.877	
CC(C)(C)CN1CCC(Oc2cc(Cl)ccc2C(=O)N2CCCCC2)CC1		0.996
O=C1N(Cc2cccc(F)c2F)CCCC1(O)CN1CCCCC1 (stereo not given)		0.928
O=C(NCc1cccnc1)c1ccc(N2CCC(NCC3CCCN(c4ncccn4)C3)CC2)cc1 (stereo not given)	0.847	
CN(Cc1nccn1C)C(=O)CC1C(=O)NCCN1CCCc1ccccc1 (stereo not given)		0.969
COc1ccc(F)c(CC2(CCC(=O)N3CCN(c4nonc4C)CC3)CCC(=O)N2)c1 (stereo not given)	0.869	
COc1cc(OC)c(CN2CCOc3ccc(C(O)CCc4ccccc4)cc3C2)c(OC)c1 (stereo not given)	0.716	
COCCNC(=O)c1ccc(OC)cc1OC1CCN(Cc2cccc(SC)c2)CC1		0.873
COc1ccc(Cc2noc(-c3ccc(N4CCC(OC)CC4)nc3)n2)cc1		0.913
COc1ccc(CN2C[C@@H]3C[C@@H](c4ccc(-c5ccco5)cc4)N4CCC[C@@]34C2=O)cc1	0.807	
COCCN1CCCC(O)(CNC2Cc3ccccc3C2)C1=O (stereo not given)		0.986
Cc1cc(C)n(-c2ccc(NC(=O)C3CCN(C(=O)c4cncs4)CC3)cc2)n1		0.859

Entries of single compounds as entered above.
COc1ccc(CN2C[C@@H]3C[C@@H](c4ccc(-c5ccco5)cc4)N4CCC[C@@]34C2=O)cc1 in the list: bacterial growth OD600 (polymyxin B 0.75 µg/mL): 0.807
CCOc1cccc(CN2CCC(Oc3cc(OC)ccc3C(=O)NCCOC)CC2)c1 in the list: bacterial growth OD600 (polymyxin B 1 µg/mL): 1.02
